The values below come from the supplement of paper PMC12067093, “Discovery and optimisation of a covalent ligand for TRIM25 and its application to targeted protein ubiquitination” (Chemical Science, 2025).

By UniProt entry, the sequences of proteins in these tests, tags left out. Where a name states a change or a piece, a line headed by the entry shows the natural chain unless it says otherwise.
UniProt P15927: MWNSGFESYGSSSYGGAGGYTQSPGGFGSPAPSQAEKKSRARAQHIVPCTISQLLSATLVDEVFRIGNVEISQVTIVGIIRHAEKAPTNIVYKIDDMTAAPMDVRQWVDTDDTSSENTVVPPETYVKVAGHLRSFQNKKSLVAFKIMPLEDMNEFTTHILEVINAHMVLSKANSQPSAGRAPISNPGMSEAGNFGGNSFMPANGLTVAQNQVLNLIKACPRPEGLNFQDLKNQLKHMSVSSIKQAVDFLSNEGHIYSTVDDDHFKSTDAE

Some of the results follow.

For the assay, the target named is RPA2_P15927_49_AQHIVPCTISQLLSATLVDEVFR (UniProt P15927). In words: probe-labelled cysteine peptide fold change vs DMSO (competition) (log2 fold change); higher = less target engagement (more negative = stronger competition). To be noted: THP-1, incubation time: 4 h.
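Note: competitive chemoproteomic profiling in live THP-1 cells with an iodoacetamide desthiobiotin (IA-DTB) probe, comparing probe-labelled peptide intensities in compound-treated cells against DMSO-treated controls.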

Regarding `CC1Cc2ccccc2N1C(=O)C1CCCN(C(=O)CCl)C1` (mixture of isomers) [TRIM25 ligand 11 (diastereomer mixture)], the “probe-labelled cysteine peptide fold change” value (10 µM) turned out to be 0.0873 and the “probe-labelled cysteine peptide fold change” value (50 µM) worked out at 0.218.
